PubChem BioAssay AID1259254 | NCATS – 2017

- Purpose: 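Finding genes that stop cells copying their DNA twice in one cycle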 (primary screen)
- Cell system: human HCT116 colorectal cancer cells
- Knock-down reagent: single siRNA against human genes
- Time to read-out: 3 days
- Read-out: 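Imaged Hoechst DNA stain sorts each cell into a cycle phase by DNA amount; per plate, G2 fraction set to 0% for non-targeting and 100% for GMNN siRNA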
- Reading the numbers: G2 robust z-score and G2 cells, % of GMNN control: higher = more G2 cells, more excess DNA replication; raw share of cells in G2: higher = larger share of cells with G2 DNA content
- Call rule: 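Active siRNAs have a G2 robust z of 5 or more median absolute deviations over the median, which in these data means about 38% or higher of GMNN control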
In all, the deposit lists about 59,000 reagents; shown is a random part of them. In the full data, about 1,550 (2.6%) got an active call. 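G2 share is only a proxy for re-replication; each gene was hit by three separate siRNAs, and active genes were retested.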 Raw values vary from plate to plate and are shown uncorrected. The numbers tell different reagents against one gene apart. No sequences are given here. The record does not give: the amount of reagent.

G2 robust z-score	G2 cells, % of GMNN control	raw share of cells in G2 (%)	Call	target gene	reagent
-0.692	-1.9	4.35	inactive	KLC1 (kinesin light chain 1)	1
0.266	4.84	7.52	inactive	KLC1 (kinesin light chain 1)	2
-0.133	2.03	4.95	inactive	KLC1 (kinesin light chain 1)	3
0.203	4.4	5.57	inactive	ABRAXAS1 (abraxas 1, BRCA1 A complex subunit)	1
0.312	5.16	4.99	inactive	ABRAXAS1 (abraxas 1, BRCA1 A complex subunit)	2
-0.527	-0.743	2.18	inactive	ABRAXAS1 (abraxas 1, BRCA1 A complex subunit)	3
0.664	7.64	7.95	inactive	KLRC4 (killer cell lectin like receptor C4)	1
-0.865	-3.12	3.12	inactive	KLRC4 (killer cell lectin like receptor C4)	2
-0.722	-2.12	3.95	inactive	KLRC4 (killer cell lectin like receptor C4)	3
0.345	5.4	7.52	inactive	BAIAP3 (BAI1 associated protein 3)	1
2.89	23.3	13.1	inactive	BAIAP3 (BAI1 associated protein 3)	2
1.99	16.9	9.34	inactive	BAIAP3 (BAI1 associated protein 3)	3
6.47	48.5	22.4	active	LGALS13 (galectin 13)	1
0.0947	3.63	5.92	inactive	LGALS13 (galectin 13)	2
-0.495	-0.513	3.09	inactive	LGALS13 (galectin 13)	3
-0.197	1.58	5.13	inactive	ASXL2 (ASXL transcriptional regulator 2)	1
0.0966	3.65	5.65	inactive	ASXL2 (ASXL transcriptional regulator 2)	2
1.19	11.3	6.76	inactive	ASXL2 (ASXL transcriptional regulator 2)	3
0.0888	3.59	4.06	inactive	ZNF304 (zinc finger protein 304)	1
-0.586	-1.15	5.39	inactive	ZNF304 (zinc finger protein 304)	2
0.0241	3.14	4.62	inactive	ZNF304 (zinc finger protein 304)	3
1.93	16.6	10.9	inactive	POFUT3 (protein O-fucosyltransferase 3)	1
0.0771	3.51	5.46	inactive	POFUT3 (protein O-fucosyltransferase 3)	2
1.24	11.7	10.3	inactive	POFUT3 (protein O-fucosyltransferase 3)	3
-0.94	-3.65	4.4	inactive	MAPK7 (mitogen-activated protein kinase 7)	1
-0.0859	2.36	6.21	inactive	MAPK7 (mitogen-activated protein kinase 7)	2
-0.637	-1.52	3.49	inactive	MAPK7 (mitogen-activated protein kinase 7)	3
2.07	17.5	11	inactive	C1QTNF8 (C1q and TNF related 8)	1
4.04	31.4	18.1	inactive	C1QTNF8 (C1q and TNF related 8)	2
1.3	12.1	7.93	inactive	C1QTNF8 (C1q and TNF related 8)	3
